# Drug screen on melanoma cell lines: apoptosis marker

Values as published with doi:10.1371/journal.pone.0140310, rounded.

Drugs:
tanespimycin (0.01 µM): C=CCNC1=C2C[C@@H](C)C[C@H](OC)[C@H](O)[C@@H](C)/C=C(\C)[C@H](OC(N)=O)[C@@H](OC)/C=C\C=C(/C)C(=O)NC(=CC1=O)C2=O
CHIR-265 (0.4 µM): Cn1c(Nc2ccc(C(F)(F)F)cc2)nc2cc(Oc3ccnc(-c4ncc(C(F)(F)F)[nH]4)c3)ccc21
nutlin-3 (0.5 µM): COc1ccc(C2=N[C@@H](c3ccc(Cl)cc3)[C@@H](c3ccc(Cl)cc3)N2C(=O)N2CCNC(=O)C2)c(OC(C)C)c1
CP-690550 (5 µM): C[C@@H]1CCN(C(=O)CC#N)C[C@@H]1N(C)c1ncnc2[nH]ccc12
bortezomib (0.005 µM): CC(C)C[C@H](NC(=O)[C@H](Cc1ccccc1)NC(=O)c1cnccn1)B(O)O
dovitinib (0.5 µM): CN1CCN(c2ccc3nc(-c4c(N)c5c(F)cccc5[nH]c4=O)[nH]c3c2)CC1
dorsomorphin (2 µM): c1cc(-c2cnn3cc(-c4ccc(OCCN5CCCCC5)cc4)cnc23)ccn1
vatalanib (10 µM): Clc1ccc(Nc2nnc(Cc3ccncc3)c3ccccc23)cc1
palbociclib (0.2 µM): CC(=O)c1c(C)c2cnc(Nc3ccc(N4CCNCC4)cn3)nc2n(C2CCCC2)c1=O
PF-04217903 (5 µM): OCCn1cc(-c2cnc3nnn(Cc4ccc5ncccc5c4)c3n2)cn1

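The test systems are human melanoma cell lines, treated with a pair of drugs for 72 h and then stained and imaged. The read-out is the fraction of cleaved-PARP-positive nuclei, in % of that fraction in the DMSO control; 200 means twice the control level of this apoptosis marker. Every drug was used at one fixed concentration, the higher of two screened. These are primary screening values without error estimates. Basal and induced levels differ widely between cell lines.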
An unselected part of the screen is shown.
An entry leaves out what has no value listed here.

{"pair": "bortezomib + vatalanib", "A2058": 2250, "A101D": 958, "SK-MEL-2": 273, "COLO 829": 4160, "WM1745": 1720, "WM451Lu": 1220, "UACC-257": 111, "SK-MEL-28": 731}
{"pair": "tanespimycin + CHIR-265", "A2058": 604, "A101D": 253, "SK-MEL-2": 363, "COLO 829": 119, "WM1745": 289, "WM451Lu": 584, "UACC-257": 70.4, "SK-MEL-28": 147}
{"pair": "vatalanib + dorsomorphin", "A2058": 421, "A101D": 136, "SK-MEL-2": 111, "COLO 829": 98.7, "WM451Lu": 85.0, "UACC-257": 53.2, "SK-MEL-28": 126}
{"pair": "dorsomorphin + CP-690550", "A2058": 190, "A101D": 44.7, "SK-MEL-2": 61.0, "COLO 829": 85.7, "WM1745": 202, "WM451Lu": 78.0, "UACC-257": 81.7, "SK-MEL-28": 268}
{"pair": "nutlin-3 + tanespimycin", "A2058": 219, "A101D": 106, "SK-MEL-2": 136, "COLO 829": 73.3, "WM1745": 170, "WM451Lu": 186, "UACC-257": 35.1, "SK-MEL-28": 280}
{"pair": "dovitinib + palbociclib", "A2058": 818, "A101D": 102, "SK-MEL-2": 58.7, "COLO 829": 193, "WM1745": 164, "WM451Lu": 104, "UACC-257": 105, "SK-MEL-28": 55.3}
{"pair": "CP-690550 + nutlin-3", "A2058": 131, "A101D": 197, "SK-MEL-2": 97.3, "COLO 829": 45.6, "WM1745": 122, "WM451Lu": 40.3, "UACC-257": 40.0, "SK-MEL-28": 60.6}
{"pair": "nutlin-3 + vatalanib", "A2058": 124, "A101D": 70.9, "SK-MEL-2": 321, "COLO 829": 301, "WM1745": 128, "WM451Lu": 45.4, "UACC-257": 177, "SK-MEL-28": 51.5}
{"pair": "CHIR-265 + CP-690550", "A2058": 142, "A101D": 144, "SK-MEL-2": 571, "COLO 829": 221, "WM1745": 113, "WM451Lu": 398, "UACC-257": 85.4, "SK-MEL-28": 115}
{"pair": "palbociclib + tanespimycin", "A2058": 313, "A101D": 55.0, "SK-MEL-2": 42.7, "COLO 829": 114, "WM1745": 327, "WM451Lu": 309, "UACC-257": 85.6, "SK-MEL-28": 127}
{"pair": "dovitinib + CHIR-265", "A2058": 403, "A101D": 372, "SK-MEL-2": 272, "COLO 829": 213, "WM1745": 171, "WM451Lu": 162, "UACC-257": 183, "SK-MEL-28": 346}
{"pair": "vatalanib + palbociclib", "A2058": 192, "A101D": 105, "SK-MEL-2": 101, "COLO 829": 85.8, "WM1745": 4520, "WM451Lu": 66.2, "UACC-257": 67.5, "SK-MEL-28": 164}
{"pair": "CHIR-265 + palbociclib", "A2058": 163, "A101D": 79.5, "SK-MEL-2": 105, "COLO 829": 151, "WM1745": 161, "WM451Lu": 259, "UACC-257": 108, "SK-MEL-28": 203}
{"pair": "vatalanib + PF-04217903", "A2058": 120, "A101D": 162, "SK-MEL-2": 44.6, "COLO 829": 83.0, "WM1745": 319, "WM451Lu": 155, "UACC-257": 218, "SK-MEL-28": 95.6}
{"pair": "CHIR-265 + dorsomorphin", "A2058": 326, "A101D": 202, "SK-MEL-2": 158, "COLO 829": 69.8, "WM1745": 200, "WM451Lu": 1240, "UACC-257": 27.7, "SK-MEL-28": 99.7}
{"pair": "dovitinib + bortezomib", "A2058": 1540, "A101D": 961, "SK-MEL-2": 359, "COLO 829": 5420, "WM1745": 317, "WM451Lu": 873, "UACC-257": 69.7, "SK-MEL-28": 456}
{"pair": "tanespimycin + bortezomib", "A2058": 2510, "A101D": 277, "SK-MEL-2": 167, "COLO 829": 2310, "WM1745": 612, "WM451Lu": 887, "UACC-257": 117, "SK-MEL-28": 964}
{"pair": "bortezomib + dorsomorphin", "A2058": 3140, "A101D": 2000, "SK-MEL-2": 298, "COLO 829": 2610, "WM451Lu": 7290, "UACC-257": 88.8, "SK-MEL-28": 280}
{"pair": "dovitinib + dorsomorphin", "A2058": 277, "A101D": 80.1, "SK-MEL-2": 228, "COLO 829": 189, "WM451Lu": 154, "UACC-257": 65.6, "SK-MEL-28": 184}
{"pair": "CHIR-265 + PF-04217903", "A2058": 84.9, "A101D": 251, "SK-MEL-2": 211, "COLO 829": 235, "WM1745": 112, "WM451Lu": 203, "UACC-257": 46.2, "SK-MEL-28": 153}
{"pair": "tanespimycin + PF-04217903", "A2058": 290, "A101D": 225, "SK-MEL-2": 105, "COLO 829": 173, "WM1745": 101, "WM451Lu": 314, "UACC-257": 209, "SK-MEL-28": 70.2}
{"pair": "bortezomib + CHIR-265", "A2058": 1750, "A101D": 443, "SK-MEL-2": 308, "COLO 829": 3420, "WM1745": 401, "WM451Lu": 1180, "UACC-257": 109, "SK-MEL-28": 402}
{"pair": "palbociclib + PF-04217903", "A2058": 136, "A101D": 139, "SK-MEL-2": 45.0, "COLO 829": 73.4, "WM1745": 79.6, "WM451Lu": 83.0, "UACC-257": 159, "SK-MEL-28": 59.3}
{"pair": "nutlin-3 + palbociclib", "A2058": 101, "A101D": 126, "SK-MEL-2": 40.4, "COLO 829": 89.1, "WM1745": 117, "WM451Lu": 135, "UACC-257": 54.6, "SK-MEL-28": 53.9}
{"pair": "nutlin-3 + PF-04217903", "A2058": 110, "A101D": 157, "SK-MEL-2": 84.1, "COLO 829": 298, "WM1745": 96.4, "WM451Lu": 76.7, "UACC-257": 47.3, "SK-MEL-28": 125}
{"pair": "vatalanib + dovitinib", "A2058": 470, "A101D": 106, "SK-MEL-2": 132, "COLO 829": 124, "WM1745": 265, "WM451Lu": 121, "UACC-257": 43.2, "SK-MEL-28": 226}
{"pair": "dorsomorphin + PF-04217903", "A2058": 133, "A101D": 165, "SK-MEL-2": 177, "COLO 829": 193, "WM1745": 130, "WM451Lu": 23.5, "UACC-257": 33.7, "SK-MEL-28": 56.9}
{"pair": "palbociclib + dorsomorphin", "A2058": 166, "A101D": 108, "SK-MEL-2": 36.9, "COLO 829": 109, "WM451Lu": 113, "UACC-257": 24.4, "SK-MEL-28": 71.4}
{"pair": "dovitinib + nutlin-3", "A2058": 358, "A101D": 122, "SK-MEL-2": 222, "COLO 829": 277, "WM1745": 140, "WM451Lu": 69.4, "UACC-257": 53.2, "SK-MEL-28": 99.1}
{"pair": "CP-690550 + dovitinib", "A2058": 1100, "A101D": 173, "SK-MEL-2": 203, "COLO 829": 223, "WM1745": 241, "WM451Lu": 61.6, "UACC-257": 89.4, "SK-MEL-28": 53.4}
{"pair": "vatalanib + tanespimycin", "A2058": 222, "A101D": 241, "SK-MEL-2": 72.5, "COLO 829": 157, "WM1745": 242, "WM451Lu": 107, "UACC-257": 82.9, "SK-MEL-28": 531}
{"pair": "tanespimycin + dorsomorphin", "A2058": 192, "A101D": 64.2, "SK-MEL-2": 107, "COLO 829": 89.2, "WM451Lu": 161, "UACC-257": 25.3, "SK-MEL-28": 424}
{"pair": "CHIR-265 + vatalanib", "A2058": 242, "A101D": 135, "SK-MEL-2": 270, "COLO 829": 415, "WM1745": 265, "WM451Lu": 280, "UACC-257": 72.0, "SK-MEL-28": 167}
{"pair": "PF-04217903 + dovitinib", "A2058": 1040, "A101D": 113, "SK-MEL-2": 327, "COLO 829": 126, "WM1745": 123, "WM451Lu": 234, "UACC-257": 88.5, "SK-MEL-28": 60.8}
{"pair": "CP-690550 + PF-04217903", "A2058": 67.1, "A101D": 27.3, "SK-MEL-2": 30.0, "COLO 829": 45.2, "WM1745": 93.2, "WM451Lu": 53.7, "UACC-257": 59.0, "SK-MEL-28": 100}
{"pair": "tanespimycin + CP-690550", "A2058": 180, "A101D": 323, "SK-MEL-2": 74.6, "COLO 829": 219, "WM1745": 114, "WM451Lu": 47.1, "UACC-257": 31.9, "SK-MEL-28": 108}
{"pair": "bortezomib + CP-690550", "A2058": 1340, "A101D": 397, "SK-MEL-2": 335, "COLO 829": 2010, "WM1745": 340, "WM451Lu": 925, "UACC-257": 42.1, "SK-MEL-28": 78.7}
{"pair": "nutlin-3 + CHIR-265", "A2058": 192, "A101D": 133, "SK-MEL-2": 260, "COLO 829": 460, "WM1745": 157, "WM451Lu": 137, "UACC-257": 63.6, "SK-MEL-28": 239}
{"pair": "bortezomib + nutlin-3", "A2058": 1780, "A101D": 327, "SK-MEL-2": 307, "COLO 829": 3130, "WM1745": 566, "WM451Lu": 943, "UACC-257": 77.9, "SK-MEL-28": 226}
{"pair": "CP-690550 + palbociclib", "A2058": 78.6, "A101D": 66.7, "SK-MEL-2": 44.5, "COLO 829": 100, "WM1745": 118, "WM451Lu": 92.3, "UACC-257": 169, "SK-MEL-28": 219}

The last 2 entries again:

- bortezomib + nutlin-3 : A2058: 1780; A101D: 327; SK-MEL-2: 307; COLO 829: 3130; WM1745: 566; WM451Lu: 943; UACC-257: 77.9; SK-MEL-28: 226
- CP-690550 + palbociclib : A2058: 78.6; A101D: 66.7; SK-MEL-2: 44.5; COLO 829: 100; WM1745: 118; WM451Lu: 92.3; UACC-257: 169; SK-MEL-28: 219